Biological target: Nitric oxide synthase, inducible (Homo sapiens, UniProt P35228)

Sequences of proteins named here, by UniProt entry; tags and fusion partners are left off.
UniProt P35228, whole entry: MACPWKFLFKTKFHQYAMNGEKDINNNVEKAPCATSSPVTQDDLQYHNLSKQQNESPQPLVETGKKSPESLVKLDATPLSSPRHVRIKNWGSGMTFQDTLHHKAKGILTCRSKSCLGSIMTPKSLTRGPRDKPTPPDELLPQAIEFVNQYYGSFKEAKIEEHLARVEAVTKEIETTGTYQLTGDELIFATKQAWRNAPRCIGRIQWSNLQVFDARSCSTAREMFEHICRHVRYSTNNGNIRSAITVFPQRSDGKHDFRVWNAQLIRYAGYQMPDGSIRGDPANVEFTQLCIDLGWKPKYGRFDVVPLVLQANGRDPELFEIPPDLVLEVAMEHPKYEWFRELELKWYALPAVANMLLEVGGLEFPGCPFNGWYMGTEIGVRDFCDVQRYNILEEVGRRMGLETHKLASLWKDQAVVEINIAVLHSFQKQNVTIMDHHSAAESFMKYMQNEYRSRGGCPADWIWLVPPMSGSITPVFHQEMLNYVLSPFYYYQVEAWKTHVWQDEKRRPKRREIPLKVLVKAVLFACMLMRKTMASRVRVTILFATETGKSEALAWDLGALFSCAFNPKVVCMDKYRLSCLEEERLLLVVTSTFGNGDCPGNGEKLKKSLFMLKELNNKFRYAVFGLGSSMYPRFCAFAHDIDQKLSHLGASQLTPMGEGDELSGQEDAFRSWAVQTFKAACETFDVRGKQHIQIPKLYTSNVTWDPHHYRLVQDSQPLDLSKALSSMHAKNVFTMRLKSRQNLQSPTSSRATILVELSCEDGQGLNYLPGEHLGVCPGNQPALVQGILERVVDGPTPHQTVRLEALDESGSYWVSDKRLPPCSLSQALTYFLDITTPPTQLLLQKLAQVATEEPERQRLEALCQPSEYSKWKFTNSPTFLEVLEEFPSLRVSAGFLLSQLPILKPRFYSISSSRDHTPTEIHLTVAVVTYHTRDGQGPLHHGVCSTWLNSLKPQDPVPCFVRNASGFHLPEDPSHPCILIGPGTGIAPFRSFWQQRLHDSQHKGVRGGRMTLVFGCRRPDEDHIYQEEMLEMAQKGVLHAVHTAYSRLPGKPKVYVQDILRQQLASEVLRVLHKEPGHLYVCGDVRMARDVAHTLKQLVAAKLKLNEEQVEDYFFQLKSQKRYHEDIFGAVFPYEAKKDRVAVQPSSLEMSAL

Structure (SMILES): Cc1cc(N)nc(CCc2cc(F)cc(CCCN(C)C)c2)c1
- Ki: 3.5 µM

From ChEMBL document CHEMBL4400558, “Optimization of Blood-Brain Barrier Permeability with Potent and Selective Human Neuronal Nitric Oxide Synthase Inhibitors Having a 2-Aminopyridine Scaffold” (J Med Chem, 2019)
